# In the supplement of paper PMC6609913:
# Counter-ions that a name gives are not always drawn. ± gives the standard deviation of the averaged measurements. Shown are results outside the selection of lowest values, which stands elsewhere.
# Legend:
# [1] = tested on: V-C8 (BRCA2-deficient hamster cells); assay: normalised cell viability (fraction of plate median); higher = more viable cells (less toxic); details: 5 µM
# How it was run: (§1)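 Library drugs, held as 10 mM stocks in DMSO, were diluted to 5 μM in 100 μl medium and added to 96-well plates of V-C8 hamster cells, either lacking BRCA2 or with BRCA2 restored, 24 h after seeding. Plates ran for 3 days (screen 1) or 6 days (screen 2), alongside solvent-only wells. Viability came from a resazurin readout, median-plate normalised, as the mean of triplicate wells.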
# [2] = tested on: V-C8 + BRCA2 (BRCA2-proficient hamster cells); assay: as above; details: 5 µM
# How it was run: as §1
smiles,measurement,setting,value
"CN1[C@@H]2CC[C@H]1C[C@@H](OC(=O)C(O)c1ccccc1)C2 (mixture of isomers) [Homatropine hydrobromide (R,S)]",normalised cell viability,[1]; treatment time: 3 days,1.06 ± 0.026
same,normalised cell viability,[1]; treatment time: 6 days,1.01 ± 0.013
same,normalised cell viability,[2]; treatment time: 3 days,1.04 ± 0.044
same,normalised cell viability,[2]; treatment time: 6 days,1.04 ± 0.012
